From patent US20220275081A1
No constants are given. Whether binding was seen depends on the method and setting. Some results given as binding are weak or reduced against the parent protein; the word gives no strength.

B1: B8 clone (Production Example 6), Lrig-1 protein-specific monoclonal antibody (antibody, mouse IgG2a, V domains shown)
VH: EVQLLESGGGLVQPGGSLRLSCAASGFTFSDYYMSWVRQAPGKGLEWVSGISHDSGSKYYADSVKGRFTISRDNSKNTLYLQMNSLRAEDTAVYYCARHWTTFDYWGQGTLVTVSS
VL: QSVLTQPPSASGTPGQRVTISCSGSSSNIGSNNVTWYQQLPGTAPKLLIYANSNRPSGVPDRFSGSKSGTSASLAISGLRSEDEADYYCGAWDYSLSAYVFGGGTKLTVLR
B2: H6 clone (Production Example 8), Lrig-1 protein-specific monoclonal antibody (antibody, mouse IgG2a, V domains shown)
VH: EVQLLESGGGLVQPGGSLRLSCAASGFTFSNYAMSWVRQAPGKGLEWVSVISHGGGSTYYADSVKGRFTISRDNSKNTLYLQMNSLRAEDTAVYYCARVISNCHLGVCYYSNGMDVWGQGTLVTVSS
VL: QSVLTQPPSASGTPGQRVTISCSGSSSNIGNNDVYWYQQLPGTAPKLLIYSDSQRPSGVPDRFSGSKSGTSASLAISGLRSEDEADYYCGTWDYSLSGYVFGGGTKLTVLR
B3: D9 clone (Production Example 7), Lrig-1 protein-specific monoclonal antibody (antibody, mouse IgG2a, V domains shown)
VH: EVQLLESGGGLVQPGGSLRLSCAASGFTFSNYAMSWVRQAPGKGLEWVSAIYPGGGSIYYADSVKGRFTISRDNSKNTLYLQMNSLRAEDTAVYYCARDILPCPWGRCYYDYAMDVWGQGTLVTVSS
VL: QSVLTQPPSASGTPGQRVTISCSDSSSNIGSNTVSWYQQLPGTAPKLLIYADNNRPSGVPDRFSGSKSGTSASLAISGLRSEDEADYYCGTWDYSLSGYVFGGGTKLTVLR

Target: T1, Lrig-1 protein expressed on the surface of L cells (leucine-rich and immunoglobulin-like domains 1) (human) (UniProt Q96JA1)
T1 sequence: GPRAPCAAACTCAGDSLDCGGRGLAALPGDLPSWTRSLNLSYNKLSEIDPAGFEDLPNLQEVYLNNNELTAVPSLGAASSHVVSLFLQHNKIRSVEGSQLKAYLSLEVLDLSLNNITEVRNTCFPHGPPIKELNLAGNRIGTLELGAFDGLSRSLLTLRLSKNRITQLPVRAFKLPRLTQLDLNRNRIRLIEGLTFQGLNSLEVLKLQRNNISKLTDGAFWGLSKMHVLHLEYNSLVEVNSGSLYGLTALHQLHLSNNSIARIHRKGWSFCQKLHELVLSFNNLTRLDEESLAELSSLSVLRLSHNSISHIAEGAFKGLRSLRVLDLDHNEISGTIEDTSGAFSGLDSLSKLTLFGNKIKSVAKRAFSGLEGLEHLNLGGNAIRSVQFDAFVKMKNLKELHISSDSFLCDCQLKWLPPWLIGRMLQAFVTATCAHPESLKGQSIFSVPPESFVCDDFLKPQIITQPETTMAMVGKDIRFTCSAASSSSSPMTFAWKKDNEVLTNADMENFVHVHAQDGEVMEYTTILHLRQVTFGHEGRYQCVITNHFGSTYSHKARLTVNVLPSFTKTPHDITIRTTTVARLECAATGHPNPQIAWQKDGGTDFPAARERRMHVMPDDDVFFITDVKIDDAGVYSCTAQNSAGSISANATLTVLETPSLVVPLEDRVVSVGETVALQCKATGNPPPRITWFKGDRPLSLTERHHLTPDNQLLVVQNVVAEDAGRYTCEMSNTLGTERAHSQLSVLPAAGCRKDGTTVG
Assay: FACS on L cells stably expressing Lrig-1, eFluor 670 anti-mouse secondary antibody

binding, binds:
B1
B2
B3
